Assay results taken from PMC12261228 (ACS Pharmacology & Translational Science, 2025).

System: U2OS cells
Assay: Live-cell imaging of intracellular distribution
Assay type: cell-based, human
Conditions: 1 μM, 5 min, 37 °C

| SMILES | distribution in living cells (in words) |
| --- | --- |
| COc1cc2c(c(OC)c1OC)-c1ccc(OC)c(=O)cc1[C@@H](n1cc(CCCC3=C4C(C)=CC(C)=[N+]4[B-](F)(F)n4c(C)cc(C)c43)nn1)CC2 [CB4] | confirmed the association of CB4 with these organelles |
| C#CCCCC1=C2C(C)=CC(C)=[N+]2[B-](F)(F)n2c(C)cc(C)c21 [B9] | stained cells only weakly |
